The results in this text go back to article PMC10163288.

This is one part of the list.

First the molecules themselves.
B1: il10ra_site1_normal_mot_HHH_b2_00345_af2_000000013_0001_42_56_H_._HHH_b1_01292_0001_0000200026_0000001_0 (protein)
chain: SSSSSSDISELAIEALRILHRRSDPELLKELWELFKLVIEHGDPEYEEEFREFIEEVTSSSSSSS
B2: il10ra_site1_normal_mot_HHH_b1_01821_000000158_0001_23_39_H_._HHH_b2_00650_af2_0001_0000600028_0000001_0 (protein)
chain: SSSSSDEEERIEELLEELEEVLREGDDERASEIAIEAVQLAQEAGDQEALQLVWRLFQNNSSSSS
B3: il10ra_site1_sap_16_mot_HHH_b2_00943_af2_000000149_0001_1_17_H_._HHH_b1_06222_0001_0000300032_0000001_0_0001 (protein)
chain: SSSSDKRSERIYELIKRVAELHYEGNPEEAQELLEEAKELVEELGDQVFRFNIELLERQLNSSSS
B4: il10ra_site1_normal_mot_HHH_b1_06816_000000239_0001_1_19_H_._HHH_b1_03485_0001_0000100006_0000002_0_af2pred_0001 (protein)
chain: SSSSDEEAREVFEEARKQLEELREEGDVEEFTRLVREVIELLLELGNPEEARKLSQEASKLSSSS
B5: il10ra_site1_normal_mot_d2735b3c0fe9b97dc03c9ec5d23a03fd_0001_1_af2_000000071_0001_17_32_H_._HHH_b1_04565_af2_0001_0000200013_0000002_0 (protein)
chain: SSSSSDDLEQRIEAILFFAKLTQNPEVAKKAIEYAIELAEEINNEELLKEAEKLLEELRSSSSSS
B6: il10ra_site1_sap_22_mot_49468d6c54d8157f7969f91124172a68_0001_af2_000000173_0001_37_51_H_._ac211477d601265d37a31625d54e07f1_0001_1_af2_0001_0000400013_0000002_0 … (protein)
chain: SSSSSSDEEEEVQELLEEAEHIEDPRELTEVLLEATRVAIQLGDPKLLQLVWRVVHRLSSSSSSS
B7: il10ra_site1_normal_mot_8756ee2cf497b5429c717dfc0c0bcfd6_0001_000000186_0001_1_13_H_._HHH_b1_06748_af2_0001_0000200008_0000001_0 (protein)
chain: SSSSDEDAEEVIELLREAAELHSDGNPEEAKEVLEEARRLAEENNNDVLLAQIEYLERLLDSSSS
B8: il10ra_site1_normal_mot_HHH_b2_03743_af2_000000240_0001_38_52_H_._HHH_b2_06571_0001_0000200010_0000001_0_af2pred_dldesign_0_af2pred (protein)
chain: SSSSSGRLELDRLRHELTDLLNAGKFEEAKKVLEELEKLAKELGDEAAIAYVEYYKKLLESSSSS
B9: il10ra_site1_sap_26_mot_HHH_b1_03277_000000286_0001_44_57_H_._HHH_b1_04841_af2_0001_0000200008_0000001_0_0001_af2pred_0001 (protein)
chain: SSSSSDEEDQERVEELLEEAKHIEDEEEVRKLVAEAHRIASEREDPELIHLVLEVYLELLSSSSS
B10: il10ra_site1_normal_mot_HHH_b2_00475_000000107_0001_44_57_H_._HHH_b2_07420_0001_0000300019_0000001_0 (protein)
chain: SSSSSSEVVELLFRAQRLLAEGNPEEAEKVVEEAKELAEELGDEELRRYVEILLHFIEAHSSSSS
B11: il10ra_site1_normal_mot_0750aae41c39e4229e2ea8fa354cc919_0001_1_000000144_0001_37_51_H_._HHH_b2_02525_0001_0000300017_0000001_0 (protein)
chain: SSSDEEQEVLELLARAARLAEEGNPEEARELVERAEELAQELNDPKLEIAVEFWRRLDEELSSSS
B12: il10ra_site1_normal_mot_HHH_b2_02337_000000026_0001_38_52_H_._HHH_b2_04113_0001_0000100006_0000001_0 (protein)
chain: SSSSDVEEELERLLEEAEELLKEGDIERLSRVLAEAVRYAFRLGNEEILRRLWELVQLAASSSSS
B13: il10ra_site1_sap_16_mot_HHH_b2_01494_af2_000000274_0001_37_50_H_._HHH_b1_00871_0001_0000400029_0000002_0_0001 (protein)
chain: SSSSDEANEEIYRLLRELIELVRKGDEEKLEELQKEIEELIREANSFVFEASLRLVERDLSSSSS
B14: il10ra_site1_normal_mot_HHH_b2_00573_000000208_0001_39_53_H_._HHH_b1_02008_0001_0000300016_0000001_0 (protein)
chain: SSSSDEEREEFERLYEEAEELLKEGDPEEVFEALRRLIELASELNDPELFRRVIRLIRELFSSSS
B15: il10ra_site1_sap_11_mot_HHH_b2_04343_af2_000000097_0001_38_52_H_._HHH_b2_06677_0001_0000200014_0000001_0_0001_af2pred_0001 (protein)
chain: SSSSDHEAEVILRKAEQAYKAYRETGDERYERAIEAALFSAEKLGDEEIVERIRELLEELKSSSS
B16: il10ra_site1_sap_19_mot_HHH_b1_07466_000000214_0001_1_19_H_._HHH_b1_03450_0001_0000300019_0000001_0_0001 (protein)
chain: SSSSSEVEERVEELIEEVEKALEQGDYQLAIELLREAVRIAAENDNPELIEELRRLAHEIVSSSS
B17: il10ra_site1_normal_mot_HHH_b2_07731_000000003_0001_42_56_H_._HHH_b2_03545_0001_0000300038_0000001_0_af2pred_dldesign_0_af2pred (protein)
chain: SSSSSEVLARVRELLDRARALYEAGKPQEAYDLLKEAALLASENKDLEAQRLVRETAAELASSSS
B18: il10ra_site1_normal_mot_HHH_b2_00475_000000107_0001_44_57_H_._8f6b033cc37342a50be9072d9d391e88_0001_0001_0000200005_0000002_0_af2pred_0001 (protein)
chain: SEEEKLLEELEKKAPDPLVRAALLSVKVALELNDPEKVKQALRLLLRILGDPRVEELLKKLEEEH

This assay concerns the target il10ra, Q13651. In words: yeast display titration.
Turning to B1, the “apparent Kd” value is “inactive: no binding seen”.
The result for B2 reads “inactive: no binding seen”; that for B3, “inactive: no binding seen”; that for B4, “inactive: no binding seen”.
With B5 the entry was “inactive: no binding seen”; with B6, “inactive: no binding seen”; with B7, “inactive: no binding seen”.
Regarding B8, the “apparent Kd” value was “inactive: no binding seen”.
With B9 the entry was “inactive: no binding seen”; with B10, “inactive: no binding seen”.
With B11 the entry was “inactive: no binding seen”.
For B12, the “apparent Kd” value is “inactive: no binding seen”.
With B13 the entry was “inactive: no binding seen”; with B14, “inactive: no binding seen”.
For B15, the “apparent Kd” value is “inactive: no binding seen”.
With B16 the entry was “inactive: no binding seen”.
With B17 the entry was “inactive: no binding seen”; with B18, “inactive: no binding seen”.
